Screening data

Source: PubChem BioAssay AID912 (NCATS, 2007).

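Uptake of anthrax lethal toxin into cultured cells, read by FRET (460/530 nm ratio) and reported from the 460 nm channel; the cell line is not named here.
Each compound was tested as a concentration series from about 0.0005 to 40 µM.
The number is the fitted AC50 of the 460 nm signal alone; lower values mean a more potent effect. A falling signal goes with compounds filed as inhibitors or cytotoxic, a rising one with activators or fluorescent compounds (inferred from the filed classes).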

Values are in nM.
Common to all entries: measured here: 460 nm channel.
Part of the compounds only, not a random draw; the main read-out is not listed here.
Potencies fitted to partial, single-point or poorly fitting curves are rough.
The first word of each remark tells which way the curve ran; it can be opposite to the aim of the assay.

Compound	AC50 (nM)	curve
O=C(Nc1nc(-c2cccs2)cs1)c1cccc(S(=O)(=O)N2CCCCC2)c1	12589	falling, single point
O=c1c(-c2ccccc2)nc2cnc(N3CCOCC3)nc2n1C[C@H]1CCCO1	1259	rising, full curve
CCOc1ccc(C(=O)CCN2CCCCC2)cc1	5012	rising, single point
Cc1noc(C)c1C(=O)N1CCC2(CCCN(c3ncccn3)C2)CC1	5012	rising, single point
O=C(c1ccccc1)[C@@H]1O[C@H]1c1ccc(-c2ccccc2)cc1	15848	falling, partial curve
COc1cc(C(=O)Nc2ccc3c(c2)C(=O)N(CCC(=O)O)C3=O)cc(OC)c1OC	31.62	falling, full curve, poor fit
Cc1ccc(-n2c(=O)[nH]cc(C(=O)Nc3ccc4c(c3)OCO4)c2=O)cc1C	31622	falling, single point
CCOC(=O)C1Cc2ccccc2CN1 (stereo not shown)	10000	falling, partial curve
CCOC(=O)c1ccc(N2C(=O)C(O)=C(C(C)=O)C2c2ccc(O)c(OC)c2)cc1 (stereo not shown)	3981	falling, single point
Cc1cc(O)c(-c2cc(C(=O)Nc3ccc(S(=O)(=O)N4CCOCC4)cc3)[nH]n2)cc1C	7943	falling, partial curve
O=C(CSc1nnc(C2COc3ccccc3O2)o1)N1CCCc2ccccc21 (stereo not shown)	31622	falling, single point
CC(OC(=O)c1cccs1)C(=O)NCc1cccs1 (stereo not shown)	12589	rising, single point
N#Cc1c(NC(=O)CSc2ncnc3sccc23)oc(-c2ccco2)c1-c1ccco1	31622	falling, single point
CN(C)C(=O)c1ccc(-c2nc(N(C)C)c3ccccc3n2)cc1	316.2	falling, partial curve
O=c1c(O)c(-c2ccc(O)c(O)c2)oc2cc(O)cc(O)c12	5012	rising, single point
COc1ccc2c(Cl)cc(NC(=S)Nc3ccccc3)nc2c1	1995	falling, partial curve
Nc1c[n+](N2CCOCC2)no1	15848	falling, partial curve
COC(=O)Nc1ncc(CN2C(=O)c3ccccc3C2=O)s1	25118	rising, single point
CCN1CCCC1CNC(=O)c1cc2c(-c3cccc(OC)c3)nn(C)c2s1 (stereo not shown)	10000	falling, partial curve
O=C(COc1cccc(-n2cnnn2)c1)N1CCOCC1	15.85	falling, full curve, poor fit
Nc1ccn([C@@H]2O[C@H](COC(=O)C34CC5CC(CC(C5)C3)C4)[C@@H](O)[C@@H]2O)c(=O)n1	3981	rising, single point
COC(=O)CSc1nc2ccccc2nc1SCC(=O)OC	31622	rising, single point
Cn1c(=O)c(-c2ccccc2)nn2c3ccccc3nc12	316.2	rising, partial curve
COC(=O)c1[nH]c2ccc(F)cc2c1NS(=O)(=O)c1ccc(OC)cc1OC	501.2	rising, full curve
CCC(C)(C)NC(=O)C(c1ccc(F)cc1)N(Cc1ccco1)C(=O)CCC(=O)Nc1ccccn1 (stereo not shown)	10000	rising, partial curve, poor fit
C/C(=C\C(=O)c1ccccc1)Nc1cccc(O)c1	6310	falling, partial curve
CC1(C)Cc2ccccc2-c2nnc(SCC(=O)Nc3nc4ccccc4s3)n21	5012	rising, single point
CN(C)c1ncc2nc(-c3cccs3)c(=O)n(CCc3ccccc3)c2n1	2512	rising, partial curve
O=C(C1=COCCO1)N1CCN(S(=O)(=O)c2cccc(Cl)c2Cl)CC1	398.1	rising, full curve, poor fit
O=C(NC1CCCCCCC1)C1CCC(CNc2c(N3CCCC3)c(=O)c2=O)CC1 (stereo not shown)	10000	rising, single point
O=C(c1c(F)cccc1F)N(Cc1ccccn1)C1CCCC1	5012	rising, partial curve
CCN(CC)CCN1C(=O)c2cccc3cc(N)cc(c23)C1=O	1000	falling, single point
CC(=O)Nc1ccc(S(=O)(=O)Nc2cccc(-c3nc4cc(C)ccc4o3)c2)cc1	19952	falling, single point
COc1ccc2cc3c(N)c(C(=O)N4CCCC4)sc3nc2c1	5012	rising, single point
O=C(NCc1ccc2c(c1)OCO2)c1c[nH]c2ccc(S(=O)(=O)N3CCOCC3)cc2c1=O	125.9	rising, full curve
CC(C(=O)N1CCN(c2ccccc2)CC1)N1C(=O)C2CC=CCC2C1=O (stereo not shown)	5012	rising, single point

Some entries from above, unchanged:

{"compound": "O=C(NCc1ccc2c(c1)OCO2)c1c[nH]c2ccc(S(=O)(=O)N3CCOCC3)cc2c1=O", "AC50 (nM)": "125.9", "curve": "rising, full curve"}
{"compound": "O=c1c(O)c(-c2ccc(O)c(O)c2)oc2cc(O)cc(O)c12", "AC50 (nM)": "5012", "curve": "rising, single point"}
{"compound": "O=C(COc1cccc(-n2cnnn2)c1)N1CCOCC1", "AC50 (nM)": "15.85", "curve": "falling, full curve, poor fit"}
{"compound": "O=C(CSc1nnc(C2COc3ccccc3O2)o1)N1CCCc2ccccc21", "stereo": "stereo not shown", "AC50 (nM)": "31622", "curve": "falling, single point"}